Results as given in patent publication US20080146500A1, “Selective Vpac2 Receptor Peptide Agonists” (priority 2004, published 2008).
The name of at least one read-out is uncertain.

Test: Pharmacokinetic profiles of PEGylated peptides, plasma peptide by RIA
Type: in vivo
Conditions: Fisher 344 rats, 100 μg compound/kg, mean N = 3
Experimental: Pharmacokinetic profiles of PEGylated peptides. Healthy Fisher 344 rats (3 animals per group) are injected with 100 μg compound/kg (compound amount based on peptide content and dissolved in PBS buffer). […] PK parameters are then calculated using a model-independent method (WinNonlin Pro, Pharsight Corp., Mountain View, Calif., USA).

Row | Substance | Vd/F
1 | C6-HDAVFTEQY(OMe)TOrnLRAibQVAAAibOrnYLQSIOrnOrnGGPSSGAPPPC(PEG60K)-NH2 [Agonist P404] | 0.556 L/kg
2 | C6-HSDAVFTEQY(OMe)TOrnLRAibQVAK(CO(CH2)2SPEG40K)AibOrnYLQSIOrnOrnGGPSSGAPPPS-NH2 [Agonist P432] | 0.229 L/kg
